Experimental data as given in PubChem BioAssay AID493014 (National Center for Advancing Translational Sciences (NCATS), 2011).
This is one part of the list. These are further read-outs of the screen, such as a control signal, another cell line or another target. No call is given for them. Compounds called inactive in the main read-out are mostly missing here. Potencies come from curve fits of mixed quality, noted in brackets.

Assay: qHTS Assay to Find Inhibitors of Chronic Active B-Cell Receptor Signaling
Conditions: ABC-DLBCL IkBa-CBG/CBR reporter, luminescence ratio (green luciferase fused to IkBa over red control in TMD8 lymphoma cells), 4 h
Summary of the method: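 Cell line TMD8 (human ABC DLBCL), stably expressing tet-inducible CBG68-IkBa fusion and CBR; IMDM/0.5% FBS; cpd up to 46 uM; dox induction, 4 h, 37C/5% CO2; dual luminescence; green/red ratio; MG132 control.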

[1] = measured here: CBR red luminescence, cell number
[2] = measured here: IkBa-CBG green luminescence

Structure (SMILES)	AC50 [1]	AC50 [2]
CC(Oc1ccc(Cl)cc1)C(=O)Nc1nccs1 (configuration not stated)	14.1 µM [falling, single point]	
CC1(C)Cc2nc3oc4c(=S)nc[nH]c4c3cc2CO1	6.31 µM [rising, single point]	
O=C(NN1C(=O)/C(=C/C=C/c2ccccc2)SC1=S)c1ccncc1	12.6 µM [falling, single point]	
Cc1ccccc1NC(=O)c1sc2nc(N3CCOCC3)c3c(c2c1N)CCCC3	17.8 µM [falling, single point]	
Cc1ccc(NC(=O)CN(C)C(=O)COC(=O)CNS(=O)(=O)c2ccc(F)c(F)c2F)cc1	1.46 µM [rising, full curve, poor fit]	
COc1ccc(C(=O)NC(=S)N2CCN(c3ccccc3O)CC2)cc1	20.6 µM [rising, partial curve, poor fit]	
O=C(Oc1cccc(NC(=O)c2ccccc2Cl)c1)c1ccc([N+](=O)[O-])cc1	5.62 µM [falling, partial curve, poor fit]	
COc1cccc(C(=O)Nc2nc3c(c(=O)[nH]2)CCCC3)c1	0.651 µM [falling, full curve]	
CCCn1c(=O)[nH]c(=O)c2c1nc(-c1cc([N+](=O)[O-])ccc1Cl)n2CCOC	11.2 µM [rising, partial curve]	14.1 µM [falling, partial curve, poor fit]
CN1CCC(OC(=O)c2ccc(Cl)cc2Cl)CC1	3.16 µM [rising, full curve]	
NC(=O)c1ccccc1-c1noc(-c2ccccc2F)n1	2.91 µM [rising, partial curve, poor fit]	
O=C(CCCn1c(=S)[nH]c2ccccc2c1=O)NCCSCc1ccccc1	6.31 µM [falling, single point]	
O=C(CSc1nc2ccccc2c(=O)n1-c1ccccc1F)NC1CC1	13 µM [rising, partial curve, poor fit]	18.4 µM [falling, partial curve]
CCOC(=O)n1n[n+]([O-])c2ccccc21	2.06 µM [rising, partial curve, poor fit]	
Cc1cc(C)nc(N2CCC(C(=O)Nc3nnc(C)s3)CC2)n1	35.5 µM [rising, single point]	
COc1ccc(-c2n[nH]c(=S)n2/N=C/C=C\c2ccccc2OC)cc1	9.2 µM [falling, partial curve, poor fit]	
CSc1cccc(Nc2cc(C(=O)NCCCN(Cc3ccccc3)C(C)C)c3ccccc3n2)c1	35.5 µM [falling, single point]	
CN(C)c1ccc(/C=C2/NC(=O)NC2=O)cc1	6.51 µM [rising, single point]	
Cc1ccc(Oc2ncccc2COC(=O)Nc2ccccc2C)cc1	0.1 µM [falling, full curve, poor fit]	
Cc1c(C(=O)C(C)C)n(C)c2ccccc12	10 µM [rising, partial curve, poor fit]	
Cc1ccc(C(=O)Nc2ccc3c(c2)OCCO3)o1	6.51 µM [rising, single point]	

Some of the entries above, set out differently.
Structure (SMILES) | AC50 [1] | AC50 [2]
Cc1ccc(NC(=O)CN(C)C(=O)COC(=O)CNS(=O)(=O)c2ccc(F)c(F)c2F)cc1 | 1.46 µM [rising, full curve, poor fit] | 
COc1ccc(C(=O)NC(=S)N2CCN(c3ccccc3O)CC2)cc1 | 20.6 µM [rising, partial curve, poor fit] | 
O=C(Oc1cccc(NC(=O)c2ccccc2Cl)c1)c1ccc([N+](=O)[O-])cc1 | 5.62 µM [falling, partial curve, poor fit] | 
COc1cccc(C(=O)Nc2nc3c(c(=O)[nH]2)CCCC3)c1 | 0.651 µM [falling, full curve] | 
CCCn1c(=O)[nH]c(=O)c2c1nc(-c1cc([N+](=O)[O-])ccc1Cl)n2CCOC | 11.2 µM [rising, partial curve] | 14.1 µM [falling, partial curve, poor fit]
CN1CCC(OC(=O)c2ccc(Cl)cc2Cl)CC1 | 3.16 µM [rising, full curve] | 

Additional entries follow:

Structure (SMILES)	AC50 [1]	AC50 [2]
CCOc1cc(-c2cc(-c3ccc(NC(C)=O)cc3)nc(N)c2C#N)ccc1O	15.8 µM [rising, partial curve, poor fit]	11.2 µM [falling, partial curve]
COc1ccc(S(=O)(=O)NC(CC(=O)O)c2ccco2)cc1 (configuration not stated)	32.6 µM [rising, partial curve, poor fit]	
O=C1CC(NS(=O)(=O)c2ccc([N+](=O)[O-])cc2)CN1c1ccc2c(c1)OCCO2 (configuration not stated)	18.4 µM [falling, single point]	
CCCCNC(=NCc1cccc(C(F)(F)F)c1)Nc1ccccc1	10 µM [falling, single point]	
O=C(N/N=C/c1ccc(O)cc1O)C(=O)N/N=C/c1ccc(O)cc1O	17.8 µM [falling, single point]	
Cc1ccn(-c2cccc(-n3ccc(C)n3)n2)n1	32.6 µM [rising, single point]	
COc1ccc(/C=C/C(=O)Nc2nc(C)cc(C)n2)cc1OC	35.5 µM [falling, single point]	
CC(C(=O)NCc1ccco1)n1cc(C(=O)c2ccco2)c2ccccc21 (configuration not stated)	20.6 µM [rising, single point]	
S=c1[nH]nc(-c2ccccc2)n1/N=C/c1ccc(-c2ccccc2Cl)o1	18.4 µM [rising, single point]	
CCCCOC(=O)n1c(=O)oc2cc(S(=O)(=O)N3CCCCC3)ccc21	6.51 µM [rising, single point]	
O=C(COC(=O)CCC(=O)c1ccccc1)Nc1nnc(-c2ccccc2)o1	6.51 µM [rising, single point]	
Cc1ccc(OCCNC(=O)c2cc(-n3cnnc3)ccc2Cl)cc1C	31.6 µM [falling, partial curve, poor fit]	
O=c1oc(-c2cccs2)nc2ccccc12	11.6 µM [falling, partial curve]	
O=C(O)C1C(c2ccccc2)C(C(=O)OCCCO)C1c1ccccc1 (configuration not stated)	3.55 µM [falling, partial curve, poor fit]	
Cc1cccn2c(=O)nc(SCC(=O)NCc3ccccc3)nc12	0.082 µM [rising, full curve, poor fit]	
Cc1cc(C)n(-c2cc(-c3ccccc3)nc(C)n2)n1	29.1 µM [falling, single point]	
C=CCN1C(=O)[C@@H]2Cc3c([nH]c4ccccc34)C(c3cc(OC)c(OC)c(OC)c3)N2C1=S (some centres not stated)	14.1 µM [falling, single point]	
CC/C(=N\NC(=O)c1ccc2c(c1)OCO2)c1ccccc1	4.47 µM [falling, partial curve]	
C/C(CC(=O)Nc1ccccn1)=N\NC(=O)c1ccc(C)cc1	18.4 µM [falling, partial curve]	
Fc1ccc(-c2nnc(NC3=NCCCCC3)o2)cc1	1.78 µM [falling, full curve]	
COc1ccc(SC[C@H](Cc2ccccc2)N2CC[C@@H](NC(=O)OCc3ccccc3)CCC2=O)cc1	32.6 µM [falling, partial curve, poor fit]	

Structure (SMILES)	AC50 [1]	AC50 [2]
CCN1/C(=C/c2ccc3cccc(C)c3[n+]2CC)Sc2ccccc21	17.8 µM [falling, single point]	
OCCCc1nc2n(n1)C(c1cccs1)C=C(c1ccc(Br)cc1)N2 (configuration not stated)	18.4 µM [falling, partial curve, poor fit]	
O=C(Nc1ccc(N2CCOCC2)cc1)c1ccc([N+](=O)[O-])cc1	3.98 µM [rising, full curve, poor fit]	
Cn1c(-c2ccccc2)cc2onc(-c3ccccc3)c2c1=O	5.17 µM [falling, single point]	
COc1ccc(OC)c(NC(=O)c2c(NCc3ccc(C)o3)sc3c2CCC(C)C3)c1 (configuration not stated)	3.55 µM [rising, partial curve, poor fit]	
O=C(Nc1nc2ccccc2s1)c1ccc2c(c1)OCO2	2.06 µM [falling, full curve]	
O=C(Nc1ccc(OC(F)F)cc1)Nc1cccc(C(F)(F)F)c1	16.4 µM [falling, single point]	
O=C(O)c1cnn2c1NC(c1ccc(F)cc1)CC2C(F)(F)F (configuration not stated)	0.517 µM [rising, full curve, poor fit]	
O=C(O)c1cc(-c2ccco2)nc2cc3ccccc3cc12	17.8 µM [falling, single point]	
O=C(NNC(=O)c1cccnc1)Nc1ccccc1	5.62 µM [falling, full curve, poor fit]	
O=C(c1cc(-c2ccc(Br)cc2)on1)N1CCCCCC1	1.12 µM [falling, full curve, poor fit]	
CC(=O)c1cccc(S(=O)(=O)NCCc2csc3nc(-c4ccc(F)cc4)nn23)c1	8.91 µM [falling, partial curve]	7.94 µM [rising, partial curve, poor fit]
CC(C)(C)C(=O)Nc1ccc(/C=C/C(=O)c2ccco2)cc1	17.8 µM [falling, single point]	
O=C(O)COc1ccccc1C=NNc1ccc([N+](=O)[O-])cc1S(=O)(=O)Nc1ccc(Cl)cc1	25.9 µM [rising, partial curve, poor fit]	
O=C(OCCN=C1NS(=O)(=O)c2ccccc21)c1cccc([N+](=O)[O-])c1	0.2 µM [rising, full curve, poor fit]	
COc1ccccc1C(=O)NNC(=S)NC(=O)c1cc(OC)c(OC)c(OC)c1		3.55 µM [falling, partial curve, poor fit]
Cc1[nH]c2ccccc2c1SCC(=O)Nc1nccs1	15.8 µM [falling, partial curve, poor fit]	
O=C(CSc1nc(-c2cccs2)cc(C(F)(F)F)n1)NCCCN1CCOCC1	35.5 µM [rising, single point]	
CCCNC(=O)c1onc(CSc2ccc(F)cc2)c1C(=O)NCCC	35.5 µM [falling, single point]	
O=C(N/N=C/c1ccccn1)c1cccc(NC(=O)c2ccccc2Cl)c1	3.55 µM [falling, full curve]	
COc1ccc(CNC(=O)C(C#N)c2nc3ccccc3nc2N2CCCC2)cc1 (configuration not stated)	6.31 µM [rising, single point]	
